Positions count from the first letter of the chain named. Results are given in words; binding and its absence hold for the method and conditions named.

20 molecules from patent US20220112288A1 can be followed below.

To fix the notation:
B1: CD8B350 (antibody, human IgG1, kappa, V domains shown)
VH: EVQLQQSGAELAKPGTSVKMSCKASGYTFAAYWINWLKQRPGQGLEWIGSINPSNGYTEYSQKFKDKAILTADKSSSTAYMQLSSLTSEDSAVYYCSRSGLYYTNHLAWCPYWGQGTTVTVSS
VL: DIVMTQSPASLSASVGETVTITCRASGNIHNYLAWYQQKQGKSPQVLVYNAETLADSVPSRFSGSGSGTQFSLKINSLQPEDFGNYYCQHFWNSPLTFGGGTKLEIKR
B2: CD8B268 (antibody, human IgG1, kappa, V domains shown)
VH: QVQLQQSGAELVKPGASVKLSCKASGYTFTVYTIHWVKQRSGQGLEWIGWFYPGSGNIKYNEKFKDKATLTADKSSHTVYMELSRLTSEDSAVYFCARHEDNHYYDGNSWFAYWGQGTLVTVSA
VL: B1 VL with V3Q, E17Q, Y36F, V46L, E52K, S57G, F71Y, P80T, S94T, L96Y
B3: CD8B246 (antibody, human IgG1, kappa, V domains shown)
VH: QVQLKESGPGILKPSQTLSLTCSFSGFSLSTSGMNVGWIRQPSGKGLEWLAHIWWDDDKYYNPSLKSQLTISKDTSRNQVFLKITSVDTADTATYYCARRGNYGNYEFAYWGQGTTLTVSS
VL: DIQMTQTTSSLSASLGDRVTISCRASQDIRNYLNWYQQKPDGTVKLLIYHTSRLHSGVPSRFSGSGSGTDYSLTISNLEQEDIATYFCQQGNTLPWTFGAGTKLELKR
B4: CD8B304 (antibody, human IgG1, kappa, V domains shown)
VH: B3 VH with Q3T, L117V
VL: B3 VL with E79D
B5: CD8B312 (antibody, human IgG1, kappa, V domains shown)
VH: QVQLQQPGADLVKPGASVKLSCKASGYTFTSFWMHWVKQRPGQGLEWIGNVDPSDSQTHYNQKFKDKATLTVDKSSNTAYMQLSSLTSEDSAVYYCARSTYYRYDGPFTYWGQGTTVTVSS
VL: DIVLTQSPATLSVTPGDSVSLSCRASQSINNNLHWYQQKSHESPRLLIKYTSQSISGIPSRFSGSGSGPDFTLSINSVETEDFGMYFCQQSNSWPLTFGGGTKLEIKR
B6: CD8B273 (antibody, human IgG1, kappa, V domains shown)
VH: B2 VH with V31E, S55T, N57S, R85K
VL: DIQMTQSPASLSASVGETVTITCRASGNIHNYLAWFQQKQGKSPQLLVYNAKTLADGVPSRFSGSGSGTQYSLKINSLQAEDFGSYYCQHFWSTPYTFGSGTKLEIKR
B7: CD8B271 (antibody, human IgG1, kappa, V domains shown)
VH: DVQLQESGPGLVAPSQSLSITCTVSGFSLSIYSIHWVRQPPGKGLEWLGMIWGGGDTDYNSALKSRLSISKDNSESQVFLKMNSLQTDDTAMYYCARNPHYYGGTYEYFDVWGTGTTVTVSS
VL: DIQMTQTTSSLSASLGDRVTISCSASQGISNYLNWYQQKPDGTVKLLIYDTSILYSGVPSRFSGSGSGTDYSLTISNLEPEDVATYYCQQYSNLPYTFGSGTKLEIKR
B8: CD8B303 (antibody, human IgG1, kappa, V domains shown)
VH: QVQLKESGPGLVAPSQSLSITCTVSGFSLSIYSIHWVRQPPGKGLEWLGMIWGGGSTDYNSTLNSRLSIIKDNSKSQVFLKMNSLQTDDTAMYYCARNPHHYGGSTGAMDYWGQGTTVTVSS
VL: DVQMIQSPSSLSASLGGTVTITCKASQDIKKYMAWYQHKPGKGPRLLIHYTSSLQPGIPSRFSGSGSGRDYYFSISNLEPEDIATYFCLQYDNLFTFGSGTKLELKR
B9: CD8B356 (antibody, human IgG1, kappa, V domains shown)
VH: DVQLQESGPGLVKPSQSLSLTCSVTGYSITSGYYWNWIRQFPGNKLEWMGYISYDGSNNYNPSLKNRISITRDTSKNQFFLKLNSVTTEDTATYYCVRNHGDAMDYWGQGTSVTVSS
VL: DIVLTQSQKFMSTTVGDRVSITCKASQNVGTAVAWYQQKPGQSPKLLIYSASYRYTGVPDRFTGSGSGTHFTLTISNMQSEDLADYFCQQYSSYLTFGSGTKLEIKR
B10: CD8B269 (antibody, human IgG1, kappa, V domains shown)
VH: B9 VH with Y106H, S112T, V113L
VL: DIVMTQSQKFMSTSVGDRVRVTCKASQNVGTDVAWYQQKPGQSPKALIYSASYRYSGVPDRFTGSGSGTDFTLTISDVQSEDLAEYFCQQYKSYPLTFGAGTKLELKR
B11: CD8B251 (antibody, human IgG1, kappa, V domains shown)
VH: QVQLKGSGPGLVQPSQSLSITCTVSGFSLTTYAVHWVRQSPGKGLEWLGVIWSGGSTDYNAAFISRLSISKDNSKSQVFFKMNSLQADDTAIYYCARHSYYHYNAMDNWGQGTSVTVSS
VL: DIKMTQSQKFMSTTVGDRVSITCKASQNVGTAVAWYQQKPGQSPKLLIYSASNRYTGVPDRFTGSGSGTDFTLTISNMQSEDLADYFCQQYSSYPFTFGSGTKLEIKR
B12: CD8B182 (antibody, human IgG1, kappa, V domains shown)
VH: EVQLQQSGAALAKPGTSVKMSCKASGYTFTSYWMNWVRQRPGQGLEWIGAVNPTNYYTEYIQKFKDKAILTADKSSSTAYMHLSGLTSEDSAVYYCARSGLYNTNHLAWFAYWGQGTTVTVSS
VL: DIKMTQSPASLSASVGETVTITCRASENIHNYLAWYQQIQGKSPQLLVYNAKTLANGVPSRFSGSASGTQFSLTINSLQPEDFGSYYCQHFWTTPLTFGAGTKLELKR
B13: CD8B250 (antibody, human IgG1, kappa, V domains shown)
VH: QVQLKESGPGLVAPSQSLSITCTVSGFSLSNYVVHWVRQSPGKGLEWLGVIWTDGSTDYNAAFISRLSISKDNSKSQVFFKMNSLQADDTAIYYCARNNGYFPAFFAYWGQGTLVTVSA
VL: B10 VL with R20S, G30D, V33I, A34T, S76T, D77N, K92N, A100S, L106M
B14: CD8B245 (antibody, human IgG1, kappa, V domains shown)
VH: EFQLQQSGGGLVQPGGSLSLSCAAPGFTFTDYYMSWVRQSPGKALEWLALSRNKGNGYTTEYSASVKGRFTISRDNSQSILYLQMNVLRAEDSATYYCARTVTGTLFYYALDYWGQGTTVTVSS
VL: DIQMTQSPASLSASVGETVTITCRASENIYSYLAWYQQKQGKSPQFLVYNAKTLAAGVPSRFSGSGSGTQFSLKINRLQPEDFGTYYCQHHYGTPLTFGDGTRLEIKR
B15: CD8B186 (antibody, human IgG1, kappa, V domains shown)
VH: QVQLQQSGAELAKPGASVKMSCKASGYIFTSYWMHWVKQRPGQGLEWIGNINPSSGYAVYNQKFKDKATLTADQSSSTAYIQLNSLTSEDSAVYYCARRVFYGDSWFAYWGQGTSVTVSS
VL: B6 VL with I2V, T5I, F36Y, A80P, P95T, Y96W, S100G
B16: CD8B192 (antibody, human IgG1, kappa, V domains shown)
VH: QVQLQQSGPVLVKPGASVKMSCKASGYTFTDYYMNWVMQSHGKSLEWIGVINPYNGGTTYNQRFTGKATLTVDKSSSTAYMELNSLTSEDSAVYYCARNYGAMDSWGQGTSVTVSS
VL: B6 VL with F36Y, Y49S, S63G, A80P, S93I, Y96P, S100A, K103R
B17: CD8B311 (antibody, human IgG1, kappa, V domains shown)
VH: QVQLKESGPELVKPGASVKLSCKASGYTFTSYWMHWVKQRPGQGLEWIGMIHPNSGSTNYNEKFKSKATLTVDKSSSTAYMQLSSLTSEDSAVYYCARCGYDGAWFAYWGQGTSVTVSS
VL: B7 VL with Y32C, Y49H, D50Y, I53S, Y55H, S65G, D70H, V83I, N93K, L94V
B18: CD8B362 (antibody, human IgG1, kappa, V domains shown)
VH: EVKLVESGAELVKPGASVKLSCTASGFNIKDTYMHWVKQRPEQGLEWIGRIDPANGHTKFDPKFQGKATITADTSSNTAYLQLSSLTSEDTAVYYCAIRFAYWGQGTLVTVSA
VL: DIQMTQSPSSLSASLGDRVSLTCRASHEISGYLSWLQQKPDGTFKRLIYAASTLDSGVPKRFSGSRSGSDYSLSISSLESEDFADYYCLQYSSYPYTFGSGTKLEMKR
B19: CD8B248 (antibody, human IgG1, kappa, V domains shown)
VH: EVQLQQSGAELARPGASVKMSCKASGYTFTTYTMHWVKQRPGQGLEWIGYINPSSGYTKYNQKFTDKATLTADKSSSTAYMQLSSLTSEDSAVYYCARLWAYWGQGTLVTVSA
VL: DVVMTQTPLSLPVSLGDQASISCRSSQSLVHSSGNTYLHWYLQKPGQSPKLLIYKGSNRFSGVSDRFSGSGSGTDFTLKISRVEAEDLGVYFCSQSTHVPFTFGSGTKLEMKR
B20: CD8B254 (antibody, human IgG1, kappa, V domains shown)
VH: EVQLQQSGAELVKPGASVKMSCKTSGYTFSSYWITWVKQRPGQGLEWVGDIYPGSGSTNYNEKFKSKAALTVDTSSSTAFMQLNSLTSEDSAVYYCARESITTRITPFDHWGQGTTLTVSS
VL: B19 VL with M111I

The first assay deals with Human CD8αα fused to human Fc (human). The assay is described as follows: SPR, Biacore 8K, mAb captured, single cycle kinetics.
Turning to B1, the binding result is recorded as “no binding (tested: 100 nM (highest concentration tested))”.

As for B2, the binding result is “no binding (tested: 100 nM (highest concentration tested))”. In the case of B3, the binding entry is given as “no binding (tested: 100 nM (highest concentration tested))”.

As for B4, the binding entry was “no binding (tested: 100 nM (highest concentration tested))”. In the case of B5, the binding entry is listed as “no binding (tested: 100 nM (highest concentration tested))”. In the case of B6, the binding entry is “no binding (tested: 100 nM (highest concentration tested))”. With B7, the binding result is listed as “no binding (tested: 100 nM (highest concentration tested))”. In the case of B8, the binding result is listed as “no binding (tested: 100 nM (highest concentration tested))”.

For the next assay the target is unchanged. Description: SPR (Biacore 8K), mAb captured, single cycle kinetics. On the technique in general: SPR reads the build-up and loss of mass on a sensor chip optically.
In the case of B9, the binding result was “no binding (tested: 100 nM (highest concentration tested))”. In the case of B10, the binding entry is “no binding (tested: 100 nM (highest concentration tested))”. Turning to B11, the binding entry is “no binding (tested: 100 nM (highest concentration tested))”. Turning to B12, the binding result is recorded as “no binding (tested: 100 nM (highest concentration tested))”.

The next assay has the same target. Description: SPR (Biacore 8k), mAb captured, single cycle kinetics.
Regarding B13, the binding result was “no binding (tested: 11.1, 33.3 and 100 nM tested)”. For B14, the binding result was “no binding (tested: 11.1, 33.3 and 100 nM tested)”. B15: the binding entry was “no binding (tested: 11.1, 33.3 and 100 nM tested)”.

In the case of B16, the binding entry was “no binding (tested: 11.1, 33.3 and 100 nM tested)”.

Consider B17, for which the binding result was “no binding (tested: 11.1, 33.3 and 100 nM tested)”.

Take B18: the binding entry was “no binding (tested: 11.1, 33.3 and 100 nM tested)”. Regarding B19, the binding entry is “no binding (tested: 11.1, 33.3 and 100 nM tested)”. Consider B20, for which the binding entry was “no binding (tested: 11.1, 33.3 and 100 nM tested)”.
